According to US5965700 (dated 1999):

Assay: general procedure: solution-phase peptide synthesis
Conditions: coupling step, HCl

Val-MeVal-Pro-Pro-NHBz×HCl
step yield: 74.1%
